This test deals with σ4^L, the −35-element recognition domain of Mycobacterium tuberculosis σ^L (Mycobacterium tuberculosis) (UniProt P9WGH5). As to the kind of experiment: SEC; size-exclusion chromatography of σ4^L alone; data not shown; both purified.

Amino acid sequences for entries named in this document (tags omitted). Residues count along the entry.
UniProt P9WGH5, residues 99-177: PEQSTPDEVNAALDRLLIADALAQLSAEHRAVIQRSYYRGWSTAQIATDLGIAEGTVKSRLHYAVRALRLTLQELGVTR

The results in this text go back to publication PMC2877774.

No constants are given. Whether binding was seen depends on the method and setting. Some binding calls cover weakened binding; strength is not graded here.

Regarding “σ4^L, the −35-element recognition domain of Mycobacterium tuberculosis σ^L (from UniProt P9WGH5 99-177) (domain or fragment)”, the binding entry is listed as “binds”.
